At least one result comes from cells or an extract, where the contact may be indirect. For some assays here: A weaker result is weaker than the reference pair of the same experiment. For some assays here: Tags and fusion partners may be left off the protein sequences shown. For some assays here: The exact form of at least one protein or probe is not confirmed. For some assays here: Negatives hold for the conditions tested.
Key:
Test in all cases: EMSA
[1] = biological target: T1, SIP1NZF (N-terminal zinc finger cluster) (Mus musculus) (UniProt Q9R0G7); conditions: similar to SIP1CZF; p87 says absent; protein in a lysate after overexpression; protein details: N-terminal Myc6, COS1 cell extract; label: 32P; variant of Xbra-WT
T1 sequence (looked up): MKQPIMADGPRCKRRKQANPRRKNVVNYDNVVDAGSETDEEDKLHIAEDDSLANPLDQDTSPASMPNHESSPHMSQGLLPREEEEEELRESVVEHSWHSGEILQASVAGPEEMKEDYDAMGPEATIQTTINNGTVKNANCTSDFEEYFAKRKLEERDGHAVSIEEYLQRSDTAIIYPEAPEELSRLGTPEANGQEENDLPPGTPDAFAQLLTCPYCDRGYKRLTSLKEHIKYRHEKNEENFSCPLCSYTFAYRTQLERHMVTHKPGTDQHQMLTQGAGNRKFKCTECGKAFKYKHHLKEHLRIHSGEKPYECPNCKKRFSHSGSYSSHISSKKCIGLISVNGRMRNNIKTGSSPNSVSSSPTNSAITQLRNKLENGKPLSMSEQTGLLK

[2] = biological target: SIP1 CZF2mut full size third His of CZF2 to Ser (Mus musculus) (UniProt Q9R0G7); conditions: protein in a lysate after overexpression; protein details: Myc6, COS1 cell extract; label: 32P
[3] = biological target: SIP1 NZF4mut full size third His of NZF4 to Ser (Mus musculus) (UniProt Q9R0G7); conditions: protein in a lysate after overexpression; protein details: Myc6, COS1 cell extract; label: 32P
[4] = biological target: SIP1 CZF3mut full size third His of CZF3 to Ser (Mus musculus) (UniProt Q9R0G7); conditions: protein in a lysate after overexpression; protein details: Myc6, COS1 cell extract; label: 32P
[5] = biological target: SIP1 NZF3mut full size third His of NZF3 to Ser (Mus musculus) (UniProt Q9R0G7); conditions: pairwise mixes of mutants also negative; protein in a lysate after overexpression; protein details: Myc6, COS1 cell extract; label: 32P

Q: Does “ATCCAGGCCACCTAAAATATAGAATGATAAAGTGACCAGATGTCAGTTCT (double strand) [Xbra-D]” bind [1]?
A: Result: binds more weakly

Q: Does “ATCCAGGCCACCTAAAATATAGAATGATAAAGTGACCAGGTGTCAGTTCT (double strand) [Xbra-WT]” bind [2]?
A: Result: no binding

Q: Does “ATCCAGGCCACCTAAAATATAGAATGATAAAGTGACCAGGTGTCAGTTCT (double strand) [Xbra-WT]” bind [3]?
A: Result: no binding

Q: Does “ATCCAGGCCACCTAAAATATAGAATGATAAAGTGACCAGGTGTCAGTTCT (double strand) [Xbra-WT]” bind [4]?
A: Result: no binding

Q: Does “ATCCAGGCCACCTAAAATATAGAATGATAAAGTGACCAGGTGTCAGTTCT (double strand) [Xbra-WT]” bind [5]?
A: Result: no binding

Source: patent publication US20050272090, “Nucleic acid binding of multi-zinc finger transcription factors” (published 2005)
